Reference: PubChem BioAssay AID1224830 (NIAID, 2016)
The deposit covers about 18,000 reagents; shown is an unselected part. About 2,900 of them (16%) were called active. 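Calls are made per well; low scores hint the gene aids the LPS response, high scores that it dampens it.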 Unmarked entries are inactive. Repeated entries: four replicate wells of each siRNA pool.

Aim: 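Genes whose knock-down alters the TNF-alpha reporter response to LPS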 (primary screen)
System: human THP-1 monocytic leukaemia cells, TNF dual-luciferase reporter clone, PMA-differentiated to macrophage-like cells
Knock-down reagent: siRNA pool against human genes, 50 nM
Duration: LPS for 4 h, given about 3 days after siRNA transfection
Challenge: bacterial LPS (TLR4 ligand), 10 ng/ml
Measured: 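TNF firefly reporter luminescence divided by renilla, normalised to the plate median, then turned into a robust z-score for each replicate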
Direction: TNF reporter robust z-score: higher = stronger TNF reporter response to LPS
Rule for the call: 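Each well counts as active if its z-score is over 2.8 or under -1.5; controls are left without a call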

EREG — TNF reporter robust z-score = 1.09
EREG — TNF reporter robust z-score = 1.03
EREG — TNF reporter robust z-score = 0.55
EREG — TNF reporter robust z-score = 0.34
SNRPN — TNF reporter robust z-score = 0.78
SNRPN — TNF reporter robust z-score = -0.4
SNRPN — TNF reporter robust z-score = 0.67
SNRPN — TNF reporter robust z-score = -0.29
ADGRL2 — TNF reporter robust z-score = -0.77
ADGRL2 — TNF reporter robust z-score = -0.25
ADGRL2 — TNF reporter robust z-score = -0.58
ADGRL2 — TNF reporter robust z-score = 4.17 (active)
MYDGF — TNF reporter robust z-score = 0.35
MYDGF — TNF reporter robust z-score = -0.12
MYDGF — TNF reporter robust z-score = 0.51
MYDGF — TNF reporter robust z-score = 0.94
H3-3B — TNF reporter robust z-score = 0.33
H3-3B — TNF reporter robust z-score = 1.54
H3-3B — TNF reporter robust z-score = 0.39
H3-3B — TNF reporter robust z-score = -0.32
TSC22D1 — TNF reporter robust z-score = -0.3
TSC22D1 — TNF reporter robust z-score = -0.2
TSC22D1 — TNF reporter robust z-score = 0.84
TSC22D1 — TNF reporter robust z-score = -0.03
TOR1AIP1 — TNF reporter robust z-score = 0.36
TOR1AIP1 — TNF reporter robust z-score = -1.26
TOR1AIP1 — TNF reporter robust z-score = 0.01
TOR1AIP1 — TNF reporter robust z-score = 0.17
DYNC1I2 — TNF reporter robust z-score = -0.64
DYNC1I2 — TNF reporter robust z-score = -0.56
DYNC1I2 — TNF reporter robust z-score = -0.79
DYNC1I2 — TNF reporter robust z-score = -0.78
ZNF705A — TNF reporter robust z-score = -0.19
ZNF705A — TNF reporter robust z-score = -0.22
ZNF705A — TNF reporter robust z-score = 0.82
ZNF705A — TNF reporter robust z-score = 1.62
CFAP69 — TNF reporter robust z-score = 1.37
CFAP69 — TNF reporter robust z-score = 0.07
CFAP69 — TNF reporter robust z-score = 0.11
CFAP69 — TNF reporter robust z-score = 0.88
C2CD4A — TNF reporter robust z-score = -0.81
C2CD4A — TNF reporter robust z-score = 0.41
C2CD4A — TNF reporter robust z-score = 0.29
C2CD4A — TNF reporter robust z-score = 1.24
ARFGAP1 — TNF reporter robust z-score = -0.19
ARFGAP1 — TNF reporter robust z-score = 0.96
ARFGAP1 — TNF reporter robust z-score = 0.29
ARFGAP1 — TNF reporter robust z-score = 0.06
